Record: PubChem BioAssay AID1159584 (Peter MacCallum Cancer Centre, 2016)

- Purpose: 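Knock-downs that harm CDH1-null cells more than parental MCF10A cells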 (primary screen)
- Cell system: human MCF10A breast epithelial cells, parental and CDH1-null
- Reagents: siRNA against human genes
- Read-out: 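ATP luminescence (CellTiter-Glo) viability per line relative to mean mock wells over all plates, and the ratio of CDH1-null to parental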
- Direction: CDH1-null / parental viability ratio: higher = CDH1-null cells survive relatively better than parental
Shown is one part, drawn at random, of about 18,000 reagents. Further read-outs or replicates are left out here. Not given: the amount of reagent, the time to read-out.

XAGE1B (X antigen family member 1B) — CDH1-null / parental viability ratio: 0.92
NUP62 (nucleoporin 62) — CDH1-null / parental viability ratio: 0.93
NARS2 (asparaginyl-tRNA synthetase 2, mitochondrial) — CDH1-null / parental viability ratio: 0.96
OR8U8 (olfactory receptor family 8 subfamily U member 8) — CDH1-null / parental viability ratio: 1.07
CHKB (choline kinase beta) — CDH1-null / parental viability ratio: 0.98
KPNA6 (karyopherin subunit alpha 6) — CDH1-null / parental viability ratio: 0.98
ZNF521 (zinc finger protein 521) — CDH1-null / parental viability ratio: 0.97
SSX5 (SSX family member 5) — CDH1-null / parental viability ratio: 2.02
HACD1 (3-hydroxyacyl-CoA dehydratase 1) — CDH1-null / parental viability ratio: 1.18
SCNN1A (sodium channel epithelial 1 subunit alpha) — CDH1-null / parental viability ratio: 1.17
ZNF800 (zinc finger protein 800) — CDH1-null / parental viability ratio: 0.74
IPMK (inositol polyphosphate multikinase) — CDH1-null / parental viability ratio: 0.9
PROK2 (prokineticin 2) — CDH1-null / parental viability ratio: 1.04
ANKRD2 (ankyrin repeat domain 2) — CDH1-null / parental viability ratio: 1
GZMB (granzyme B) — CDH1-null / parental viability ratio: 1
OR52A5 (olfactory receptor family 52 subfamily A member 5) — CDH1-null / parental viability ratio: 1.14
CYP4V2 (cytochrome P450 family 4 subfamily V member 2) — CDH1-null / parental viability ratio: 1.12
LYPD6 (LY6/PLAUR domain containing 6) — CDH1-null / parental viability ratio: 1.03
BRF2 (BRF2 general transcription factor IIIB subunit) — CDH1-null / parental viability ratio: 1.09
CYB561D1 (cytochrome b561 family member D1) — CDH1-null / parental viability ratio: 0.84
CDC14A (cell division cycle 14A) — CDH1-null / parental viability ratio: 1.39
TAS2R60 (taste 2 receptor member 60) — CDH1-null / parental viability ratio: 1.23
DCDC2 (doublecortin domain containing 2) — CDH1-null / parental viability ratio: 0.67
KCND2 (potassium voltage-gated channel subfamily D member 2) — CDH1-null / parental viability ratio: 1.07
ZNF324 (zinc finger protein 324) — CDH1-null / parental viability ratio: 1.52
PPP2R5E (protein phosphatase 2 regulatory subunit B'epsilon) — CDH1-null / parental viability ratio: 1.1
PPT2 (palmitoyl-protein thioesterase 2) — CDH1-null / parental viability ratio: 1.12
ZNF667 (zinc finger protein 667) — CDH1-null / parental viability ratio: 0.95
LINC03124 (long independently transcribed non-coding RNA 3124) — CDH1-null / parental viability ratio: 0.76
TAF7 (TATA-box binding protein associated factor 7) — CDH1-null / parental viability ratio: 0.79
SNX21 (sorting nexin family member 21) — CDH1-null / parental viability ratio: 0.84
SP100 (SP100 nuclear body protein) — CDH1-null / parental viability ratio: 1.05
PAX6 (paired box 6) — CDH1-null / parental viability ratio: 1.07
SLX4IP (SLX4 interacting protein) — CDH1-null / parental viability ratio: 0.9
DPP7 (dipeptidyl peptidase 7) — CDH1-null / parental viability ratio: 1.18

Looked up above:
Result of HACD1 (3-hydroxyacyl-CoA dehydratase 1) in “CDH1-null / parental viability ratio”: 1.18
Result of XAGE1B (X antigen family member 1B) under “CDH1-null / parental viability ratio”: 0.92
Under “CDH1-null / parental viability ratio”, SLX4IP (SLX4 interacting protein) reads 0.9
Result for PROK2 (prokineticin 2) in “CDH1-null / parental viability ratio”: 1.04
